These results are taken from paper PMC5430330.

No constants are given. Whether binding was seen depends on the method and setting. For some assays here: Binding seen in cells or lysates may run through a third protein. For some assays here: Tags and fused reporters may be left off the sequences shown.

The target of experiment [1] is cCFP-AtBS14b (Arabidopsis thaliana). The experiment in a line: split reporter; split GFP assay: X-nYFP and cCFP-AtBS14b co-expressed transiently in N. benthamiana leaves by Agrobacterium infiltration; YFP fluorescence by confocal microscopy after 36 to 48 hours.
Experiment [2] addresses AtBS14b in Cub vector pMETYC_GW (Arabidopsis thaliana). The experiment in a line: two-hybrid; mating-based split-ubiquitin assay in yeast; MSBP1, BAK1, BRI1 in Nub vector pXN25_GW, AtBS14b in Cub vector pMETYC_GW; yeast growth assay; NubWT and NubG as positive and negative control.

B1: BAK1-nYFP (receptor, UniProt Q94F62 26-615)
chain: NAEGDALSALKNSLADPNKVLQSWDATLVTPCTWFHVTCNSDNSVTRVDLGNANLSGQLVMQLGQLPNLQYLELYSNNITGTIPEQLGNLTELVSLDLYLNNLSGPIPSTLGRLKKLRFLRLNNNSLSGEIPRSLTAVLTLQVLDLSNNPLTGDIPVNGSFSLFTPISFANTKLTPLPASPPPPISPTPPSPAGSNRITGAIAGGVAAGAALLFAVPAIALAWWRRKKPQDHFFDVPAEEDPEVHLGQLKRFSLRELQVASDNFSNKNILGRGGFGKVYKGRLADGTLVAVKRLKEERTQGGELQFQTEVEMISMAVHRNLLRLRGFCMTPTERLLVYPYMANGSVASCLRERPESQPPLDWPKRQRIALGSARGLAYLHDHCDPKIIHRDVKAANILLDEEFEAVVGDFGLAKLMDYKDTHVTTAVRGTIGHIAPEYLSTGKSSEKTDVFGYGVMLLELITGQRAFDLARLANDDDVMLLDWVKGLLKEKKLEALVDVDLQGNYKDEEVEQLIQVALLCTQSSPMERPKMSEVVRMLEGDGLAERWEEWQKEEMFRQDFNYPTHHPAVSGWIIGDSTSQIENEYPSGPR
Regarding B1, the binding result in experiment [1] is “no binding”.

B2: BAK1 in Nub vector pXN25_GW (receptor, UniProt Q94F62 26-615)
chain: B1 chain
For B2, the binding result in experiment [2] is reported as “no binding”.
